These results are taken from article PMC7320039.

Chains of the proteins cited; added tags and fusions are not shown. Residues count along the entry.
UniProt P46531, residues 19-2555: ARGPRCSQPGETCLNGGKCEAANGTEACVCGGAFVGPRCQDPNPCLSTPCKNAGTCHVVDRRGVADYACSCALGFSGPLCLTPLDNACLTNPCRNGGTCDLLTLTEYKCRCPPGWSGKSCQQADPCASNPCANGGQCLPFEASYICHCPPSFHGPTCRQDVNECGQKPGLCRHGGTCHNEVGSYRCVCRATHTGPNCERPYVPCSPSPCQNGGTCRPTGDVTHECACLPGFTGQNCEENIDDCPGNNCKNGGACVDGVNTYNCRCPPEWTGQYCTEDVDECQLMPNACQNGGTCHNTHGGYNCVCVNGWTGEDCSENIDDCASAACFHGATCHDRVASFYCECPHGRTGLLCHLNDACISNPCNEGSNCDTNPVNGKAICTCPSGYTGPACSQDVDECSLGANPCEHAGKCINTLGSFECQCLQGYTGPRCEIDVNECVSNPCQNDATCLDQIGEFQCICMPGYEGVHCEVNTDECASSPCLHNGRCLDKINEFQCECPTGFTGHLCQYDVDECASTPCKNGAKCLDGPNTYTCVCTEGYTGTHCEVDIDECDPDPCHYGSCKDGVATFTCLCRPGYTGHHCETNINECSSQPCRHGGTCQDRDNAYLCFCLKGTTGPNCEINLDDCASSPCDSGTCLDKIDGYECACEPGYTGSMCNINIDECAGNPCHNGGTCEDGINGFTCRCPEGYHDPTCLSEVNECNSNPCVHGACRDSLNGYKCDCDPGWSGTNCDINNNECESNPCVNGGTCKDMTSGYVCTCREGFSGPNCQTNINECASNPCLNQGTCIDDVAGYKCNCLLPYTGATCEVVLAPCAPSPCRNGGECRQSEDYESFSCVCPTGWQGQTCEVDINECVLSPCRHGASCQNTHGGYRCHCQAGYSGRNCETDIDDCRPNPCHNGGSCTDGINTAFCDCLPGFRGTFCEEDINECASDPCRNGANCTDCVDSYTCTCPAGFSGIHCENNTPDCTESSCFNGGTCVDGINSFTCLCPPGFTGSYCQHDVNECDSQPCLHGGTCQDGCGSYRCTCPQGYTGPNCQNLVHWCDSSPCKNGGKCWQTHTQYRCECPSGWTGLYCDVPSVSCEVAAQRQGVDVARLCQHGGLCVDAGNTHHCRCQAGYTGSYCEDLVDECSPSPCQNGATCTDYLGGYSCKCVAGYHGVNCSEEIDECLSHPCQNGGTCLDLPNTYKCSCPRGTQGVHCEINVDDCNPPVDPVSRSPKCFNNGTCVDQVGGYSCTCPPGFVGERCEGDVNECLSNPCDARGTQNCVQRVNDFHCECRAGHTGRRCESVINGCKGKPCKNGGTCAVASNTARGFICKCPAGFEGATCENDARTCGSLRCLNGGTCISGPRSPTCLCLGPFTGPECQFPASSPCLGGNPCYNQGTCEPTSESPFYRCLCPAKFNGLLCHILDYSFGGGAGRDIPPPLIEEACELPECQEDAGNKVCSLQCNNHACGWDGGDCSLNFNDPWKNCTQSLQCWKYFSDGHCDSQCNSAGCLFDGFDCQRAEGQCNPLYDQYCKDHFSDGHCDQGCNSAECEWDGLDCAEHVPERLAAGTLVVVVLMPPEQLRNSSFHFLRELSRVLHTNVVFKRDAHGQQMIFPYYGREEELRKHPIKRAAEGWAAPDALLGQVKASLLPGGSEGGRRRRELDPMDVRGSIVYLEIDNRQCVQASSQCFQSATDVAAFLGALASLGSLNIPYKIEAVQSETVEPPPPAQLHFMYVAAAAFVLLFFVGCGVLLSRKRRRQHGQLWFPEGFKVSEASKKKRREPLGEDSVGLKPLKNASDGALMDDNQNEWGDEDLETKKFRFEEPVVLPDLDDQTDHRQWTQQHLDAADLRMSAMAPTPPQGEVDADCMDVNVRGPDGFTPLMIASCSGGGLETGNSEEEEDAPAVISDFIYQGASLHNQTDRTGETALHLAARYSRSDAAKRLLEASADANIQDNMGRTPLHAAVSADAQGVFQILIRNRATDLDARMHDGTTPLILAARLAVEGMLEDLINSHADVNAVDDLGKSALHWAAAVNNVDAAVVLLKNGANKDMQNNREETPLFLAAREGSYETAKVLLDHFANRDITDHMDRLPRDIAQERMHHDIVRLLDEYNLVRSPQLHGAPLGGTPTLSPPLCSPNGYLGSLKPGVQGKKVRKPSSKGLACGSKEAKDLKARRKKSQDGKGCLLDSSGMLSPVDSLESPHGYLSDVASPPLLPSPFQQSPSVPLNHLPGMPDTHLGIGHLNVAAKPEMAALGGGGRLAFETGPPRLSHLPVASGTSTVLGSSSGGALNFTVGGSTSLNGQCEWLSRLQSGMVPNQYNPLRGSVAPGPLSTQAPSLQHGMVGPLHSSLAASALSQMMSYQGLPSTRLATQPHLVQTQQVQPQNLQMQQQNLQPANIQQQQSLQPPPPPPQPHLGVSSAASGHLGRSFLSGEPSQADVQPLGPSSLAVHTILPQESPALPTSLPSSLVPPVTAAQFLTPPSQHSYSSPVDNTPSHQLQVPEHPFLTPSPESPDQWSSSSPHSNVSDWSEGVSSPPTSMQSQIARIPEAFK

No constants are given. Whether binding was seen depends on the method and setting. Binding seen in cells or lysates may run through a third protein. These calls come from enrichment with a bait or labelling near it, and not all partners need be listed.

This experiment has as its target T1, DYRK2 (bait of the immunoprecipitation followed by mass spectrometry) (human) (UniProt Q92630).
T1 sequence: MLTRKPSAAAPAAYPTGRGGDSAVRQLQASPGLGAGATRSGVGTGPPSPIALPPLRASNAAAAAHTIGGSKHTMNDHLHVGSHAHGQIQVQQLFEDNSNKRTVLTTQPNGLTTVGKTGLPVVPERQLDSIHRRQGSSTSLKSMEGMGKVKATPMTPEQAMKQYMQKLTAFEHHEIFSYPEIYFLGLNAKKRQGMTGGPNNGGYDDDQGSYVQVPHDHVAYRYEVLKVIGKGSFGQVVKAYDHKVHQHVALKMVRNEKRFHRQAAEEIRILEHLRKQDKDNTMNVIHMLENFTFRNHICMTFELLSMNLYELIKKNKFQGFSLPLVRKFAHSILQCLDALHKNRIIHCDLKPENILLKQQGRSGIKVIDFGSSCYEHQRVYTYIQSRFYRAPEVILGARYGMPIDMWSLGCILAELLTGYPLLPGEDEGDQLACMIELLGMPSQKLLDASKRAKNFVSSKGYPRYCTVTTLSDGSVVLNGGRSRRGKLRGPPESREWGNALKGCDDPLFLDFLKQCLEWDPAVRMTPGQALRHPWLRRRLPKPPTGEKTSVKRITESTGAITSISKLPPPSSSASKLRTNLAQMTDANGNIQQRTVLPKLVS
Nature of the experiment: affinity purification with mass spectrometry; immunoprecipitation of DYRK2 followed by mass spectrometry; details in Supplementary Materials and methods.

Turning to “NOTCH1 (hit of the DYRK2 immunoprecipitation with mass spectrometry) (from UniProt P46531 19-2555) (receptor)”, the binding result was “binds”.
